The results in this text go back to paper PMC8346013.

Chains of the proteins cited; added tags and fusions are not shown. Lines headed by an entry give the natural chain unless they say otherwise; changes in a name come on top.
UniProt Q6ASS9: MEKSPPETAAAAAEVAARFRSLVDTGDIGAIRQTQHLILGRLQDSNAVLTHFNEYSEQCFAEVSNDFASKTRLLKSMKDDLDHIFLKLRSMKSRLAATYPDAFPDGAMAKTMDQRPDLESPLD
UniProt Q0J0G7: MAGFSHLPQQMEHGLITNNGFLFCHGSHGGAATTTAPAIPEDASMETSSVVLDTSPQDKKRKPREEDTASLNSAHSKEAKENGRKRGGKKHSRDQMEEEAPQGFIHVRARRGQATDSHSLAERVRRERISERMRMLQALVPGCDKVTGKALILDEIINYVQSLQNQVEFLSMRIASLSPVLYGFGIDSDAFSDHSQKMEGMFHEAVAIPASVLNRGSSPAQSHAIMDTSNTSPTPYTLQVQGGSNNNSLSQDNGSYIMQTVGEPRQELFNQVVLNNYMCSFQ
UniProt A3BV95: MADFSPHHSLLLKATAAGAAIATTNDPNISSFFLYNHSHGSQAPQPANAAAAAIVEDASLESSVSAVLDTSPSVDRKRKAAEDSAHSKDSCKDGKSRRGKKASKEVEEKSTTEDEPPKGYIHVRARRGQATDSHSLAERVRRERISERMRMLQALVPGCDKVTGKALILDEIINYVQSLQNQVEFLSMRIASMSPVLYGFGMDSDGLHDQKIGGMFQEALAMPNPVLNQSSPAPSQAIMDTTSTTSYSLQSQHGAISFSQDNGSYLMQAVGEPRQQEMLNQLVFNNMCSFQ
UniProt Q6Z2G7: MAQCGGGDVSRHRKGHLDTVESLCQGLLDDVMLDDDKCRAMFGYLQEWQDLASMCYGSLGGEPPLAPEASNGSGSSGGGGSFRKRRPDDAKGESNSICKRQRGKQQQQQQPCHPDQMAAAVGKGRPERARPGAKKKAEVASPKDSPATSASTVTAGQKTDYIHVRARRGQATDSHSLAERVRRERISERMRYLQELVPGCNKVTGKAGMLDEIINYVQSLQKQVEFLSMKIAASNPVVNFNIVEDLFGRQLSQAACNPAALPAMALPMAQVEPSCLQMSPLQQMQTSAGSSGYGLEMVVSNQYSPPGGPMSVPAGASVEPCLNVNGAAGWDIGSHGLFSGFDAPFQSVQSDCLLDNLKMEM

No constants are given. Whether binding was seen depends on the method and setting. Binding can be weak; no strength is given.

The target of one assay is LO9-177 (rice) (UniProt Q6ASS9). Put plainly: two-hybrid; full-length proteins fused to GAL4 BD/AD (pBD-/pAD-GAL4 vectors, Stratagene) in yeast cells; X-gal filter assays.
The target of assay [1] is OsBUL1 COMPLEX1 (OsBC1) (rice) (UniProt Q0J0G7). The description is as above.

“OsBC-Like1 (OsBCL1) (from UniProt A3BV95)”: the binding entry (with LO9-177 (rice); in assay [1]) was “binds” in each case.
With “OsBC-Like2 (OsBCL2) (from UniProt Q6Z2G7)”, the binding result (with LO9-177 (rice); in assay [1]) was “no binding” each time.
